The record followed here is PubChem BioAssay AID248 (DTP/NCI, 2004).

SMILES strings stand for the structures. The list shows only some results of the screen, not a fair sample: it gathers tests that were run many times, whatever their T/C, doses with no T/C, and many T/C values between a quarter and a half above the control. Other doses and runs of a compound stand elsewhere. T/C: endpoint of the treated group in % of that of the vehicle group. Some doses have a count of surviving animals in place of a T/C: the source files T/C as zero there, which appears to mark a toxic dose or a test without result, not a measured value. Some survivor counts are full or nearly so, which does not show that the dose was tolerated: the source hardly ever lists a survival T/C far under the control, and the zero likely stands for such cases as well. Survivors were counted at the toxicity check, usually on the fifth day, unless a day is given; later deaths do not show. Schedules are NCI's codes, taken here to give the interval after Q, in days (D) or hours (H), and the number of doses after X. Some molecules as drawn cover several salts, stereoisomers or complexes of the source; a dose is that of the sample tested. Some schedules carry Z or #; the key to these is not given. Where survival is the endpoint, this PubChem deposit counts one and a half times the control or more as active, and values a quarter to a half above the control carry no call in these data; other NCI protocols may use other cut-offs. Counts like (3×) give the number of equal values in this list.

This assay concerns L1210 leukemia ip in BDF1 mice, survival T/C. As to the kind of experiment: NCI In Vivo Anticancer Drug Screen. Data for tumor model L1210 Leukemia (intraperitoneal) in B6D2F1 (BDF1) mice. As to conditions: T/C endpoint: mean survival time, higher T/C = longer survival.
Setting [1] is: dose: 400.0 mg/kg/injection, schedule: Q01DX001 (ip), vehicle: carboxymethylcellulose (CMC).
The mark [2] stands for this setting: dose: 200.0 mg/kg/injection, schedule: Q04DX003 (ip), vehicle: saline with Tween-80.
Where [3] appears, read: dose: 100.0 mg/kg/injection, schedule: Q04DX003 (ip), vehicle: Klucel (hydroxypropylcellulose) (HPC).
[4] abbreviates: dose: 200.0 mg/kg/injection, schedule: Q04DX003 (ip), vehicle: Klucel (hydroxypropylcellulose) (HPC).
The mark [5] stands for this setting: dose: 400.0 mg/kg/injection, schedule: Q04DX003 (ip), vehicle: Klucel (hydroxypropylcellulose) (HPC).
[6] abbreviates: dose: 400.0 mg/kg/injection, schedule: Q01DX001 (ip), vehicle: saline.
Where [7] appears, read: dose: 400.0 mg/kg/injection, schedule: Q04DX003 (ip), vehicle: saline.
The mark [8] stands for this setting: dose: 400.0 mg/kg/injection, schedule: Q04DX003 (ip), vehicle: saline with Tween-80.
[9] abbreviates: dose: 50.0 mg/kg/injection, schedule: Q04DX003 (ip), vehicle: Klucel (hydroxypropylcellulose) (HPC).

In the case of `CN(Cc1cnc2cc(N)nc(N)c2n1)c1ccc(C(=O)O)cc1`, the survivor count (dose: 200.0 mg/kg/injection, schedule: Q01DX009 (ip), vehicle: other) is listed as 6 of 6.
For `Cc1oc2c(O)ccc(N=Nc3cccc([N+](=O)[O-])c3)c2c1C`, the survivor count (dose: 100.0 mg/kg/injection, schedule: Q01DX009 (ip), vehicle: Klucel (hydroxypropylcellulose) (HPC)) was 6 of 6.
Regarding `CC(=O)Nc1nc(/C=C\c2ccc([N+](=O)[O-])cc2)c(CCCCc2ccccc2)c(=O)[nH]1`, the survivor count is given as 6 of 6 (dose: 25.0 mg/kg/injection, schedule: Q01DX001 (ip), vehicle: saline with Tween-80); 6 of 6 (dose: 50.0 mg/kg/injection, schedule: Q01DX001 (ip), vehicle: saline with Tween-80); 6 of 6 (dose: 100.0 mg/kg/injection, schedule: Q01DX001 (ip), vehicle: saline with Tween-80).
On to `Cn1c(=O)c(=O)n(C)c2cc(Cl)c(Cl)cc21`, for which, under setting [1], the survivor count was 0 of 4.
Take `Nc1nc(N)c2cc(CNc3ccc(C(=O)NC(CCCC(=O)O)C(=O)O)cc3)cnc2n1` (configuration not stated): the T/C reads like this: (dose: 50.0 mg/kg/injection, schedule: Q04DX003 (ip), vehicle: saline with Tween-80) 139 % of control; under setting [2], 136 % of control; (dose: 300.0 mg/kg/injection, schedule: Q04DX003 (ip), vehicle: saline with Tween-80) 131 % of control.
`C[N+]12CCCc3cc(CO)cc(c31)CCC2`: the survivor count is 5 of 6 (dose: 50.0 mg/kg/injection, schedule: Q01DX009 (ip), vehicle: Klucel (hydroxypropylcellulose) (HPC)); 0 of 6 under setting [3]; 0 of 6 under setting [4]; 0 of 6 under setting [5].
On to `C=CC1CN2CCC1CC2C(O)c1ccnc2ccc(OC)cc12` (configuration not stated), for which the survivor count (dose: 100.0 mg/kg/injection, schedule: Q01DX001 (ip), vehicle: saline) was 6 of 6; the survivor count (dose: 150.0 mg/kg/injection, schedule: Q01DX009 (ip), vehicle: saline with Tween-80) was 0 of 6; the survivor count (dose: 219.6 mg/kg/injection, schedule: Q01DX Z (ip), vehicle: other) is recorded as 5 of 10; the survivor count (dose: 300.0 mg/kg/injection, schedule: Q01DX009 (ip), vehicle: saline with Tween-80) is on record as 0 of 6; the survivor count under setting [6] is 0 of 6.
Consider `Cc1cc(/C=C\c2ccc3ccccc3[n+]2C)c(O)c2ncccc12`, for which, under setting [1], the survivor count is given as 2 of 6.
`CC(CNC(=O)CCOS(C)(=O)=O)CNC(=O)CCOS(C)(=O)=O`: the T/C is 131 % of control (dose: 264.0 mg/kg/injection, schedule: Q04DX003 (ip), vehicle: other); 133 % of control (dose: 300.0 mg/kg/injection, schedule: Q01DX009 (ip), vehicle: other); 130 % of control (2×) (dose: 400.0 mg/kg/injection, schedule: Q04DX003 (ip), vehicle: other); 131 % of control under setting [7].
Take `O=CNc1ccc(Cl)cc1`: the survivor count is, setting by setting: under setting [3], 6 of 6; under setting [5], 6 of 6.
`NC(=O)c1cc2c(N)[nH]nc2nc1N`: the survivor count was 1 of 6 (dose: 100.0 mg/kg/injection, schedule: Q04DX003 (ip), vehicle: saline with Tween-80); 0 of 6 under setting [2]; 0 of 6 under setting [8].
As to `CC1(C)COC(CC2CCCCC2)=N1`, under setting [7], the survivor count was 0 of 6.
As to `CC(CCC(=O)O)C1CCC2C3CCC4CC(OC=O)CCC4(C)C3CC(OC=O)C12C` (configuration not stated), the survivor count was 6 of 6 under setting [2] and 6 of 6 under setting [8].
For `Nc1nc(N)c2cc(N3CCCC3c3ccc(Cl)cc3)ccc2n1` (configuration not stated), the survivor count reads like this: (dose: 50.0 mg/kg/injection, schedule: Q01DX009 (ip), vehicle: water) 2 of 6; (dose: 100.0 mg/kg/injection, schedule: Q01DX009 (ip), vehicle: water) 0 of 6; (dose: 200.0 mg/kg/injection, schedule: Q01DX009 (ip), vehicle: water) 0 of 6; (dose: 400.0 mg/kg/injection, schedule: Q01DX009 (ip), vehicle: water) 0 of 6.
For the compound `CCn1cc(C(=O)O)c(=O)c2cc(OC)c3ccccc3c21`, the survivor count (dose: 200.0 mg/kg/injection, schedule: Q04DX002 (ip), vehicle: Klucel (hydroxypropylcellulose) (HPC)) is reported as 2 of 3.
Consider `Cc1cc(C)[s+]s1`, for which the survivor count by setting is: (dose: 75.0 mg/kg/injection, schedule: Q01DX009 (ip), vehicle: saline) 5 of 6; (dose: 100.0 mg/kg/injection, schedule: Q01DX009 (ip), vehicle: saline) 4 of 6; (dose: 200.0 mg/kg/injection, schedule: Q01DX009 (ip), vehicle: saline) 1 of 6; under setting [7], 1 of 6.
Regarding `NC(=S)N/N=C1\C=CCCC1`, the survivor count is 0 of 4 (dose: 100.0 mg/kg/injection, schedule: Q01DX001 (ip), vehicle: carboxymethylcellulose (CMC)); 0 of 4 (dose: 200.0 mg/kg/injection, schedule: Q01DX001 (ip), vehicle: carboxymethylcellulose (CMC)); 0 of 4 under setting [1].
Consider `CCN(CC)CCn1c2ccncc2c2cnccc21`, for which the survivor count was 0 of 6 (dose: 200.0 mg/kg/injection, schedule: Q04DX003 (ip), vehicle: saline) and 0 of 6 under setting [7].
In the case of `O=C(COc1ccc(Cl)c(Cl)c1)Nc1ccc[n+](Cc2ccccc2S(=O)(=O)F)c1`, the survivor count is, setting by setting: under setting [2], 2 of 6; under setting [8], 1 of 6.
In the case of `CC[CH2][Pb]([CH2]CC)([CH2]CC)[O]C(C)=O`, the survivor count by setting is: (dose: 25.0 mg/kg/injection, schedule: Q04DX003 (ip), vehicle: Klucel (hydroxypropylcellulose) (HPC)) 3 of 6; under setting [9], 0 of 6; under setting [3], 0 of 6; (dose: 200.0 mg/kg/injection, schedule: Q01DX001 (ip), vehicle: saline) 2 of 4; under setting [4], 0 of 6; under setting [6], 0 of 4.
As to `Cc1cccc(C[As](=O)(O)O)c1`, the survivor count under setting [9] is reported as 0 of 3, the survivor count under setting [3] is on record as 0 of 6, the survivor count under setting [4] was 0 of 6 and the survivor count under setting [5] is 0 of 6.
